Assay results reported in PubChem BioAssay (EPA / NIEHS).
Inconclusive means that the source gave no clear call. Such entries were picked first, then a sample of the others. Where the call is inconclusive, the potency comes from a doubtful curve fit. The source made the active and inactive calls. How the source made its calls: active means hit-call score of the fitted dose curve at least 0.9, where 1 is the maximum; inconclusive means response in the unintended direction; inactive means score below 0.9.

Test: VALA_MIGHUV1_ScratchOnly_CellCount: Viability Assessment in the VALA Sciences human Umbilical Vein Endothelial Cell Migration (MIGHUV) Assay, Scratch Wound Inhibited Recovery (AID 2284327)
Method: VALA_MIGHUV1_ScratchOnly is a cell-based, multiplexed assay that uses umbilical vein-derived endothelial cells (HUVEC). Measurements were taken 24 hours after chemical dosing in a 96-well plate.VALA_MIGHUV1_ScratchOnly_CellCount is the one of two assay components measured from the VALA_MIGHUV1_ScratchOnly assay. It is designed to make measurements of viability, a form of viability reporter, as detected with fluorescence intensity signals by HCS Fluorescent Imaging technology. Data from the assay component VALA_MIGHUV1_ScratchOnly_CellCount was analyzed at the endpoint, VALA_MIGHUV1_ScratchOnly_CellCount, in the positive analysis fitting direction relative to DMSO as the negative control and baseline of activity. Using a type of viability reporter, loss-of-signal activity can be used to understand viability. To generalize the intended target to other relatable targets, this assay endpoint is annotated to the cell cycle intended target family, where the subfamily is cell count.
Cells were seeded on 384-well microplates (day-0) at a density of 9000 cells per well for detection of wound area recovery or 4000 cells per well for detection of beta-catenin (CTNB) immunoreactivity and incubated in Endothelial Cell Growth Medium (CAI, San Diego; catalog 211-500). After 24 hours of culture, the HUVEC plates were scratched using a custom scratch head with the Bravo liquid handling system. This created a 'wound' area without cells in each well. Test chemical was added within 30 min, each tested in 3-replicates across a 6-point concentration response (0.1 % DMSO vehicle control). 'ScratchOnly' Plates were incubated for a 24 h 'wound recovery' period and then fixed with 4% paraformaldehyde. Hoechst dye was used to visualize cell nuclei in the wound area, and CTNB immunofluorescence for visualizing CTNB-positive nuclei (beta-Catenin (L54E2) Mouse mAb (IF Preferred) 2677; Cell Signaling Technology, Danvers, MA). Each HUVEC plate included neutral vehicle control (0.1 % DMSO) treated wells and Cytochalasin D (actin cytoskeletal disrupter) or BIO-acetoxime (synthetic GSK3 inhibitor) as positive reference controls for endothelial migration and nuclear translocation of CTNB, respectively.

SMILES	AC50	outcome
Oc1cc(Cl)ccc1Oc1ccc(Cl)cc1Cl	inconclusive: 1.29 nM	
CC(C)(C)c1ccc(CSc2cnn(C(C)(C)C)c(=O)c2Cl)cc1	inconclusive: 24.1 nM	
Oc1ccc(C(c2ccc(O)cc2)(C(F)(F)F)C(F)(F)F)cc1	inconclusive: 355 nM	
CO[C@@H]1[C@H](OC(=O)NC(=O)CCl)CC[C@]2(CO2)[C@H]1[C@@]1(C)O[C@@H]1CC=C(C)C	inconclusive: 2.03 nM	inactive
Cc1ccc(N)cc1N	inconclusive: 1.29 nM	
CC(C)(C)c1cc(O)ccc1O	inconclusive: 4.14 nM	
ClCC(Cl)CCl	inconclusive: 7.13 nM	
O=[N+]([O-])c1cc(C(F)(F)F)c(Cl)c([N+](=O)[O-])c1Nc1ncc(C(F)(F)F)cc1Cl	inconclusive: 0.256 nM	
Clc1ccc(Cl)c(Cl)c1	inconclusive: 6.56 nM	
Oc1ccc2ccc3cccc4ccc1c2c34	inconclusive: 2.01 nM	
N#Cc1nn(-c2c(Cl)cc(C(F)(F)F)cc2Cl)c(N)c1S(=O)C(F)(F)F (configuration not stated)	inconclusive: 1.29 nM	

A few values from the list:
`Oc1ccc2ccc3cccc4ccc1c2c34` | AC50: inconclusive: 2.01 nM
`O=[N+]([O-])c1cc(C(F)(F)F)c(Cl)c([N+](=O)[O-])c1Nc1ncc(C(F)(F)F)cc1Cl` | AC50: inconclusive: 0.256 nM
